Assay [1] addresses GST-Rhotekin RBD domain (UniProt Q8C6B2). In words: pull-down; 2 ug recombinant GST fusion and glutathione-Sepharose beads mixed with BV2 cell lysate (cells with or without 1 uM MMF), 2 h at 4 C; lysis buffer 20 mM Tris-HCl pH 8.0, 150 mM NaCl, 1 mM EDTA, 0.5% NP-40, 1 mM DTT; immunoblot; only the target purified.
Assay [2] has the same target. Kind of assay: pull-down; 2 ug recombinant GST fusion and glutathione-Sepharose beads mixed with mouse brain lysate (P14, mice with or without MMF administration), 3 h at 4 C; lysis buffer 20 mM Tris-HCl pH 8.0, 150 mM NaCl, 1 mM EDTA, 0.5% NP-40, 1 mM DTT; immunoblot; only the target purified.

Sequences of proteins named here, by UniProt entry; tags and fusion partners are left off. A change or cut given only in a name is not applied to a line headed by its entry.
UniProt Q8C6B2: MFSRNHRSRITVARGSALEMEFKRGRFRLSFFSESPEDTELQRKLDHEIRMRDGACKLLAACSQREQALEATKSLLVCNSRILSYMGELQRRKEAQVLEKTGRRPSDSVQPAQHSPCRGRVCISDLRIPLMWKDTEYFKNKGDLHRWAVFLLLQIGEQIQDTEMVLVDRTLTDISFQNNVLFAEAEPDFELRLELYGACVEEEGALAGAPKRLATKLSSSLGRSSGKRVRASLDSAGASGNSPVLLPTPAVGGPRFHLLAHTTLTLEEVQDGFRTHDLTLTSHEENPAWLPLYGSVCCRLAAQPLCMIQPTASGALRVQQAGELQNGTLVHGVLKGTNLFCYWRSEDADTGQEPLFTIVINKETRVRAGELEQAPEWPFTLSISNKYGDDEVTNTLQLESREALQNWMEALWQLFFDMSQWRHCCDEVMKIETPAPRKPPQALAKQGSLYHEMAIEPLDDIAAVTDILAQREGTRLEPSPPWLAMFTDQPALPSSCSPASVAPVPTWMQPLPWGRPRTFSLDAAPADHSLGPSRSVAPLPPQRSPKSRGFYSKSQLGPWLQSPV
UniProt Q9QUI0: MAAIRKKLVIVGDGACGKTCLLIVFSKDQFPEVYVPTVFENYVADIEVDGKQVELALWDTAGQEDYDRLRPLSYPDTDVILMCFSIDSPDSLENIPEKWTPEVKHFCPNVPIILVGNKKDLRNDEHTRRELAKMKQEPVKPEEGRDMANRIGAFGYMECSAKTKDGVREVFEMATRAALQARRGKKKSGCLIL

The values that follow come from PMC12882203.

Results are given in words; binding and its absence hold for the method and conditions named. Binding seen in cells or lysates may run through a third protein. Binding calls can cover weak binding; strength is not graded here.

“RhoA (GTP-bound form) (from UniProt Q9QUI0 1-193)”: the binding result with GST-Rhotekin RBD domain [1] and with GST-Rhotekin RBD domain [2] was “binds” throughout.
